The other results are listed elsewhere or left out. These are further read-outs of the screen, such as a control signal, another cell line or another target. No call is given for them. The list favours compounds with an active or inconclusive main result. The note in brackets gives the kind of curve behind each potency; many fits are weak.
Experiment: qHTS Assay to Find Inhibitors of Chronic Active B-Cell Receptor Signaling
Details: ABC-DLBCL IkBa-CBG/CBR reporter, luminescence ratio (green luciferase fused to IkBa over red control in TMD8 lymphoma cells), 4 h
Procedure, shortened: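 Concentration-response series (up to 46 uM) were applied to TMD8 dual-reporter cells for 4 h at 37C with doxycycline. Green/red ratio, after filter-overlap correction, defined %Activity; red signal alone was normalised to basal cells and zero luminescence.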

[1] = measured here: IkBa-CBG green luminescence
[2] = measured here: CBR red luminescence, cell number

Compound	AC50 [1]	AC50 [2]
CC(Sc1nnc(C2CC2)n1C)C(=O)Nc1ccc(N2CCOCC2)cc1 (stereo not drawn)	6.51 µM [rising, partial curve, poor fit]	–
Cn1c(=O)c(C=Nc2ccccc2)c(O)c2ccccc21	–	35.5 µM [falling, single point]
CCOC(=O)n1cc(C(=O)c2ccccc2O)cn1	–	4.47 µM [falling, full curve, poor fit]
CC(=O)c1sc(-c2ccc(Cl)cc2)cc1N	–	0.708 µM [rising, full curve, poor fit]
CC(=O)C1=C(c2ccc(Br)cc2)C(=O)c2ccccc2C1=O	–	5.17 µM [falling, full curve, poor fit]
CN(Cc1ccccc1)S(=O)(=O)c1ccc(NS(=O)(=O)Cc2ccccc2)cc1	18.4 µM [rising, partial curve, poor fit]	29.1 µM [falling, single point]
COc1cccc(N2CC(NC(=O)Cc3cccs3)CC2=O)c1 (stereo not drawn)	–	1.12 µM [rising, full curve]
CCC1C/C(=C/c2ccco2)C(=O)/C(=C/c2ccco2)C1 (stereo not drawn)	–	14.6 µM [falling, partial curve]
CCOc1ccc(-c2cc(CCCC(=O)NCc3ccco3)no2)cc1	–	5.17 µM [falling, partial curve]
c1ccc(CNc2ncnc3scc(-c4cccs4)c23)nc1	–	11.2 µM [falling, partial curve, poor fit]
O=C(c1ccc(F)cc1)N1CCN2C(=O)c3ccccc3C12c1ccc(Cl)cc1 (stereo not drawn)	–	14.1 µM [falling, single point]
O=C(CN(C(=O)CNC(=O)c1ccco1)c1ccc(Cl)c(Cl)c1)NC1CCCCC1	–	11.2 µM [falling, partial curve, poor fit]
CC(C)c1ccc(C2C3=C(COC3=O)Nc3cc4c(cc32)OCO4)cc1 (stereo not drawn)	2.24 µM [falling, full curve]	2 µM [rising, full curve]
CCOc1cc(/C=N/NC(=O)CSc2cccc3cccnc23)ccc1O	–	17.8 µM [falling, single point]
Cc1ccccc1NC(=O)COC(=O)CN1C(=O)NC(C)(C)C1=O	–	7.31 µM [rising, partial curve, poor fit]
CCN(CC)c1ccc(NC(=O)c2ccc(=O)[nH]c2)cc1S(=O)(=O)Nc1ccccc1OC	15.8 µM [falling, partial curve, poor fit]	–
NC1=NC(=O)/C(=C\c2ccsc2)S1	–	35.5 µM [falling, single point]
O=C(O)c1cccc(Cn2c(Cl)c(/C=N/NC(=O)c3cc4ccccc4cc3O)sc2=O)c1	–	11.2 µM [falling, single point]
O=C(N/N=C/c1ccc(O)cc1)Nc1cccc2nsnc12	–	15.8 µM [falling, single point]
Clc1cccc(N=C2NN=C(c3ccc4c(c3)OCCO4)CS2)c1	–	16.4 µM [falling, single point]
O=C(Nc1ccccc1C(F)(F)F)N1CCN(c2ccc3nncn3n2)CC1	–	29.1 µM [falling, single point]

Retrieved by compound from the list above:
Compound	AC50 [1]	AC50 [2]
c1ccc(CNc2ncnc3scc(-c4cccs4)c23)nc1	–	11.2 µM [falling, partial curve, poor fit]
Clc1cccc(N=C2NN=C(c3ccc4c(c3)OCCO4)CS2)c1	–	16.4 µM [falling, single point]

The list continues:

Compound	AC50 [1]	AC50 [2]
Cn1c2ccccc2c2cnn(CC(=O)Nc3ccccc3Br)c(=O)c21	–	15.8 µM [rising, partial curve, poor fit]
O=C(CCl)N=c1sccn1Cc1ccccc1Cl	–	11.2 µM [falling, partial curve]
CC(C)(C)N/N=C1\CC(c2ccccc2)Oc2ccccc21 (stereo not drawn)	–	0.259 µM [rising, full curve]
CCCCC(=O)OCc1c(-c2cccc(OC)c2)ncc2ccccc12	–	10.3 µM [falling, partial curve]
N#Cc1ccc(NC(=O)c2cc(-c3cccs3)on2)cc1	–	3.98 µM [rising, partial curve, poor fit]
CCCn1ccc2c(OCC(=O)Nc3ccc(F)cc3F)cccc2c1=O	–	3.16 µM [falling, partial curve, poor fit]
Cc1cccc(OCC(=O)Nc2ccc3c(c2)N(C)C(=O)c2ccccc2S3)c1	–	14.1 µM [falling, partial curve, poor fit]
COc1cccc(C(=O)NNC(=O)C(=O)Nc2cccc(Cl)c2C)c1	–	14.1 µM [falling, partial curve]
O=C(c1ccco1)N1CCN(Cc2c(Cl)cccc2Cl)CC1	–	10 µM [rising, partial curve, poor fit]
COC(=O)/C(C#N)=C1/C=Cc2ccccc2N1	–	2.51 µM [falling, full curve, poor fit]
Clc1ccccc1OCc1nc(-c2ccc(Br)o2)no1	–	0.411 µM [rising, full curve, poor fit]
Cc1cc(Cl)cc(Cl)c1OCCOc1cccc2cccnc12	–	1.3 µM [rising, partial curve]
Cc1ccccc1C1c2[nH]c3ccccc3c2CCN1Cc1cccn1-c1ncccn1 (stereo not drawn)	–	17.8 µM [falling, single point]
COc1cc(/C=N/N=C(\N)c2nonc2N)ccc1O	–	11.2 µM [falling, partial curve, poor fit]
Cc1sc2c(c1C)CN(Cc1ccncc1)CN2C(=O)c1ccco1	–	20.6 µM [falling, single point]
CCn1c(O)c(C=C2N=c3ccccc3=N2)sc1=S	–	5.62 µM [falling, single point]
CCOC(=O)c1cc(C)sc1NC(=O)CN1CCN(C(=O)c2ccco2)CC1	–	3.16 µM [rising, partial curve, poor fit]
CCc1ccc(CN(C)CC(=O)Nc2ccccc2[N+](=O)[O-])cc1	–	23.1 µM [rising, single point]
CCN1CCN(C(=O)C(C)Oc2ccc(S(=O)(=O)N3CCCC3)cc2C(N)=O)CC1 (stereo not drawn)	–	25.9 µM [rising, single point]
CN(C)CC1CCCCC1OC(=O)c1ccc(S(=O)(=O)N(C)c2ccccc2)cc1 (stereo not drawn)	–	2 µM [falling, full curve, poor fit]
